Among the data in the supplement of paper PMC8256030 are percent viability values, retold here.

Several values for one entry are separate records, joined by “and”; a condition that tells them apart may be missing. Equal values may be shown once. The list shows a part of the results. Single values are uncertain here, since repeats match poorly.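 HEK293T cells were given each compound shortly before transfection with a reporter in which red mCherry is followed by the SARS-CoV-2 frameshift element and then GFP in the −1 frame, so GFP appears only after frameshifting.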

The test system of this assay is HEK293T. Briefly: percent viability (nuclei count) relative to control; higher = more viable cells. The conditions noted are these: 10 µM; 24 h.
As for `CC(=O)SC[C@@H](Cc1ccccc1)C(=O)NCC(=O)OCc1ccccc1` [ecadotril], the percent viability was 213%.
Take `CCN(CC)CCC(=O)N1c2ccccc2Sc2ccc(C(F)(F)F)cc21` [fluacizine]: the percent viability came out at 209%.
Take `C[n+]1ccccc1C=NO` [pralidoxime iodide]: the percent viability amounted to 93.4%.
As for `CN(C)C[C@@H]1CCn2cc(c3ccccc32)C2=C(C(=O)NC2=O)c2cn(c3ccccc23)CCO1`, the percent viability is 125%.
The value for `Nc1nc(O)c2ncn(CCC(CO)CO)c2n1` was 336%.
`CCCC(=O)N1CCCN(c2nc(N)c3cc(OC)c(OC)cc3n2)CC1` [bunazosin]: the percent viability worked out at 180%.
With `C/C(=C\c1csc(C)n1)[C@@H]1C[C@@H]2O[C@]2(C)CCC[C@H](C)[C@H](O)[C@@H](C)C(=O)C(C)(C)[C@@H](O)CC(=O)N1` [ixabepilone] the figure was 13.1%; with `Cc1oc(=O)oc1CN1CCN(c2cc3c(cc2F)c(=O)c(C(=O)O)c2n3C(C)S2)CC1` (stereo not given), 99.9%; with `O=C1CCC(c2ccc(-n3ccnc3)cc2)=NN1` [imazodan], 94.6%.
Turning to `CCCCNC(=O)c1ccc(Cl)cc1O` [buclosamide], the percent viability came out at 272%.
For the compound `CCCCNC(=O)NS(=O)(=O)c1ccc(N)cc1` [carbutamide], the percent viability amounted to 161%.
As to `CC1(C)SCCN(S(=O)(=O)c2ccc(Oc3ccncc3)cc2)[C@H]1C(=O)NO` [prinomastat], the percent viability turned out to be 342%.
For `CN(C)CCC(O)(c1ccccc1)c1ccccc1Cl` (stereo not given) [clofedanol], the percent viability amounted to 245%.
In the case of `Fc1ccc([C@@H]2CCNC[C@H]2COc2ccc3c(c2)OCO3)cc1` [paroxetine], the percent viability was 390% and 300%.
On to `COC(=O)C1=C(C#N)NC(C)=C(C(=O)OC(C)C)C1c1cccc([N+](=O)[O-])c1` (stereo not given) [nilvadipine], for which the percent viability was 257%.
